The record followed here is the supplement of paper PMC11150407.

Hit rate of the full screen: of about 3,000 compounds, about 45 (2%) showed an effect of 50% or more. The list shows a part of the results.

As a reminder, the cell viability is a read-out of living cells in per cent, often relative to untreated cells.

The experiment deals with MOLM1 and UCSD/AML1 (averaged). As to the kind of experiment: cell viability relative to DMSO control (POC); higher = less growth inhibition. Particulars: 1 µM; 72 h. How it is done: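 Primary viability screen in the 3q26 EVI1-high AML cell lines MOLM1 and UCSD/AML1, compounds at 1 uM for 72 h. ATP CellTiter-Glo read-out given as percent viable over DMSO control (POC), averaged over duplicates. This mapping covers the TimTec NDL-3000 natural derivative library, whose compounds are identified by TimTec catalogue codes (ST...).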
Turning to `C/C(=N\N=C1\C(=O)Nc2ccccc21)c1c(O)c2ccccc2n(-c2ccccc2)c1=O`, the cell viability came to 100%.
The figure for `O=C(/C=C/c1ccc2c(c1)OCO2)N(C(=O)NCc1ccco1)c1ccccc1` is 97.3%; for `N#Cc1cn(CC(=O)NCCc2c[nH]c3ccccc23)c2ccccc12` it is 105%; for `O=C(CCNc1ccc(F)c(Cl)c1)c1cc2ccccc2oc1=O` it is 91%.
Take `Cc1c(C(=O)N2CCCCC2)[nH]c2ccc(OCc3ccccc3)cc12`: the cell viability was 102%.
As to `COCCOC(=O)C1=C(N)Oc2c(oc(CO)cc2=O)C1c1ccccc1F` (configuration not stated), the cell viability stood at 121%.
With `COc1ccc(C(=O)COC(=O)c2cccc(NC(=O)c3ccc(OC)c(OC)c3)c2)cc1`, the cell viability came to 112%.
Next, `COC(=O)CNC(=O)c1ccc(Cl)c([N+](=O)[O-])c1`: 94.2%.
Take `CN(C)C(=O)c1ccc(NCCC(=O)c2cc3ccccc3oc2=O)cc1`: the cell viability was 93.1%.
The figure for `Cc1[nH]c2ccc(F)cc2c1CCNC(=O)c1cc2ccccc2oc1=O` is 102%.
With `CCOc1ccc2oc(=O)cc(CN3CCN(CC(=O)NC4CCCC4)CC3)c2c1`, the cell viability amounted to 95.6%.
For `COc1cc(-c2nn(CNc3ccc(C)cc3)c(=S)o2)cc(OC)c1OC`, the cell viability came to 101%.
The figure for `O=C(O)C1Cc2c([nH]c3ccccc23)C(c2ccc(Cl)cc2)N1` (configuration not stated) is 109%.
Next, `Cc1cc(=O)[nH]c(=O)n1COCCOc1ccc(Cl)cc1`: 114%; `CCOC(=O)c1cccc(NC(=O)c2cc(OC)cc(OC)c2)c1`: 96.2%; `COc1cc(CNC(=O)c2ccccc2Br)cc(OC)c1OC`: 83.5%.
Take `COc1cc(NC(=O)c2cc(OC)c(OC)c(OC)c2)c(OC)cc1Cl`: the cell viability was 99%.
For the compound `C[C@@H](O)[C@H](NC(=O)OCc1ccccc1)C(=O)OCc1ccccc1`, the cell viability is 96.9%.
With `CCOC(=O)Cn1ccc(NC(=O)c2ccc3c(c2)OCO3)n1`, the cell viability was determined as 97%.
The figure for `CCOc1ccc(C(=O)NCCn2cc(Cl)cn2)cc1OCC` is 94.2%.
As to `C=C(C)C1CCC2(COC(C)=O)CCC3(C)C(CCC4C5(C)CCC(=O)C(C)(C)C5CCC43C)C12` (configuration not stated), the cell viability stood at 89%.
The figure for `CN(C)C(=O)CSc1nc(N)cc(=O)[nH]1` is 101%; for `CCOc1cc(/C=C/C(=O)c2ccccc2)ccc1OCc1ccccc1Cl` it is 102%.
As to `CC(=O)OC1CCC2(C)C(CCC3(C)C2C(=O)C=C2C4CC(C)(C(=O)OCC5CCCN6CCCCC56)CCC4(C)CCC23C)C1(C)C` (configuration not stated), the cell viability was 91.3%.
The figure for `COc1cccc(CCCN)c1` is 101%; for `COc1cccc(CN2COc3c(cc4c(C)c(C)c(=O)oc4c3C)C2)c1` it is 96.1%; for `CC(NC(=O)CSc1nc2ccccc2c(=O)[nH]1)c1nc2ccccc2[nH]1` (configuration not stated) it is 104%.
The figure for `COc1ccc(C(O)C(=O)O)cc1O` (configuration not stated) is 91.4%.
With `COc1cc(OC)c(OC)cc1/C=C(\C#N)C(=O)OC(C)C`, the cell viability was determined as 88%.
On to `CC(=O)OC1CCC2(C)C(CCC3(C)C2C(=O)C=C2C4CC(C)(C(=O)Nc5cccc6ccccc56)CCC4(C)CCC23C)C1(C)C` (configuration not stated), for which the cell viability is 104%.
Next, `NC(C(=O)O)C(O)c1ccc(OCc2ccccc2)c(OCc2ccccc2)c1` (configuration not stated): 102%; `CCOc1ccc(/C=C2/Oc3ccc(C(=O)OC)cc3C2=O)cc1OCC`: 96.6%; `COCC(=O)c1c(O)cc(O)cc1O`: 112%.
Next, `Cc1cc2c(C(C)C)c(O)c(O)c(C=NCCC3=CCCCC3)c2c(O)c1-c1c(C)cc2c(C(C)C)c(O)c(O)c(C=NCCC3=CCCCC3)c2c1O`: 114%.
The figure for `CCc1ccc(OCCn2c(C)c(C(=O)OCCOC)c3cc(O)c4ccccc4c32)cc1` is 85.8%; for `CCOC(=O)c1cc(CSc2nc3c(=O)[nH]cnc3n2-c2ccc(C)cc2)on1` it is 101%.
For the compound `COc1cc(OC)cc(C(=O)Nc2cc(OC)cc(S(=O)(=O)c3ccc(Cl)cc3)c2)c1`, the cell viability worked out at 92.8%.
Regarding `COc1cc(-c2nnc(SCC(=O)N/N=C/c3cccnc3)n2-c2ccccc2)cc(OC)c1OC`, the cell viability came to 97.2%.
Consider `CCOc1ccccc1C1C2CCCCC2(O)CCN1C/C=C/c1ccccc1` (configuration not stated), for which the cell viability was 72.6%.
The figure for `O=C(Nc1ccccc1)C1=Cc2ccccc2OC1` is 101%; for `NC(CCCC(N)C(=O)O)C(=O)O` (configuration not stated) it is 104%; for `Cc1cc(=O)oc2cc(NC(=O)c3cc4ncc(Br)cn4n3)ccc12` it is 109%.
Next, `Cc1ccc2[nH]c(C)c(CCNC(=O)c3cc4ccccc4oc3=O)c2c1`: 100%.
Next, `CC1(C(=O)O)CCC2(C)CCC3(C)C(=CC(=O)C4C5(C)CCC(OC6OC(C(=O)O)C(O)C(O)C6OC6OC(C(=O)O)C(O)C(O)C6O)CC5CCC43C)C2C1.CC1(C(=O)O)CCC2(C)CCC3(C)C(=CC(=O)C4C5(C)CCC(OC6OC(C(=O)O)C(O)C(O)C6OC6OC(C(=O)O)C(O)C(O)C6O)CC5CCC43C)C2C1.[Zn]` (configuration not stated): 102%; `CCC(C)C(NC(C)=O)C(=O)O` (configuration not stated): 95.6%.
For the compound `Cn1cnc2c(N)ncnc21`, the cell viability is 107%.
For `COC1OC2COC(c3ccccc3)OC2C(O)C1OS(=O)(=O)c1ccc(C)cc1` (configuration not stated), the cell viability came out at 80.9%.
The figure for `COc1cc(C2C(C#N)=C(N)Oc3n[nH]c(-c4ccccc4)c32)cc(OC)c1OC` (configuration not stated) is 100%.
Next, `CCc1nnc(NC(=O)CN2CCc3ccccc3C2)s1`: 109%.
Next, `Cn1c(=O)[nH]c(=O)c2c1nc(N1CCN(C(=O)CCC(=O)O)CC1)n2Cc1ccc([N+](=O)[O-])cc1`: 96.4%.
Regarding `Cc1[nH]c2ccccc2c1CCNC(=O)c1ccc(Cl)c([N+](=O)[O-])c1`, the cell viability came out at 98.3%.
For `CC(C)COc1ccc(C(=O)N/C(=C\c2ccccc2)C(=O)NCCNC(=O)/C(=C\c2ccccc2)NC(=O)c2ccc(OCC(C)C)cc2)cc1`, the cell viability came out at 103%.
The figure for `O=C(O)C1C2C=CC(C2)C1C(=O)N1CCc2ccccc2C1` (configuration not stated) is 98.6%; for `CC(=O)OCC1OC(NC(=O)OC2CCCCC2)C(OC(C)=O)C(OC(C)=O)C1OC(C)=O` (configuration not stated) it is 103%; for `CC(=O)OC1CC(n2cc(C)c(=O)[nH]c2=O)OC1CO` (configuration not stated) it is 98.2%.
In the case of `Cc1ccc(-n2c(SCC(=O)Nc3cccc(F)c3)nc3c(=O)[nH]cnc32)cc1`, the cell viability is 100%.
In the case of `c1ccc(Cn2nnnc2SCc2nc3ccccc3[nH]2)cc1`, the cell viability is 98.4%.
Next, `O=C(Cn1c(=O)cc(C(=O)N2CCc3ccccc3C2)c2ccccc21)Nc1ccc2c(c1)OCCO2`: 103%.
Regarding `N#Cc1c(-c2ccc(Cl)cc2)cc(-c2ccc3c(c2)OCO3)[nH]c1=O`, the cell viability stood at 91.5%.
For `COc1cc(C(=O)Nc2nccs2)cc(OC)c1OC`, the cell viability was 98.2%.
Consider `COc1ccc(-c2nnc(SCc3nc4ccccc4[nH]3)o2)cc1OC`, for which the cell viability worked out at 95.3%.
With `CCOC(=O)c1ccc(NC(=O)CSc2nc3ccccc3c(=O)[nH]2)cc1`, the cell viability came to 85.1%.
